Consider 1 substance from publication PMC11467429.

Protein sequences, listed by entry. Tags and fused reporters are not part of them. Lines headed by an entry give the natural chain unless they say otherwise; changes in a name come on top.
UniProt Q7Z419: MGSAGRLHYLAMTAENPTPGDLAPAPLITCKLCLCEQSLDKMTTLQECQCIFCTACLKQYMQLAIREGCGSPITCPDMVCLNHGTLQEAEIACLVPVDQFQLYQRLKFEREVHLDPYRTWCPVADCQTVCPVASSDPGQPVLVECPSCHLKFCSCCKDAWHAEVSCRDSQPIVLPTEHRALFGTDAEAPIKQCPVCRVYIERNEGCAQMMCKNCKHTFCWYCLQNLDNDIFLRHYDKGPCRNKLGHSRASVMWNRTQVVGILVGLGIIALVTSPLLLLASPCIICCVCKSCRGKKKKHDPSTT
UniProt Q9BYX4: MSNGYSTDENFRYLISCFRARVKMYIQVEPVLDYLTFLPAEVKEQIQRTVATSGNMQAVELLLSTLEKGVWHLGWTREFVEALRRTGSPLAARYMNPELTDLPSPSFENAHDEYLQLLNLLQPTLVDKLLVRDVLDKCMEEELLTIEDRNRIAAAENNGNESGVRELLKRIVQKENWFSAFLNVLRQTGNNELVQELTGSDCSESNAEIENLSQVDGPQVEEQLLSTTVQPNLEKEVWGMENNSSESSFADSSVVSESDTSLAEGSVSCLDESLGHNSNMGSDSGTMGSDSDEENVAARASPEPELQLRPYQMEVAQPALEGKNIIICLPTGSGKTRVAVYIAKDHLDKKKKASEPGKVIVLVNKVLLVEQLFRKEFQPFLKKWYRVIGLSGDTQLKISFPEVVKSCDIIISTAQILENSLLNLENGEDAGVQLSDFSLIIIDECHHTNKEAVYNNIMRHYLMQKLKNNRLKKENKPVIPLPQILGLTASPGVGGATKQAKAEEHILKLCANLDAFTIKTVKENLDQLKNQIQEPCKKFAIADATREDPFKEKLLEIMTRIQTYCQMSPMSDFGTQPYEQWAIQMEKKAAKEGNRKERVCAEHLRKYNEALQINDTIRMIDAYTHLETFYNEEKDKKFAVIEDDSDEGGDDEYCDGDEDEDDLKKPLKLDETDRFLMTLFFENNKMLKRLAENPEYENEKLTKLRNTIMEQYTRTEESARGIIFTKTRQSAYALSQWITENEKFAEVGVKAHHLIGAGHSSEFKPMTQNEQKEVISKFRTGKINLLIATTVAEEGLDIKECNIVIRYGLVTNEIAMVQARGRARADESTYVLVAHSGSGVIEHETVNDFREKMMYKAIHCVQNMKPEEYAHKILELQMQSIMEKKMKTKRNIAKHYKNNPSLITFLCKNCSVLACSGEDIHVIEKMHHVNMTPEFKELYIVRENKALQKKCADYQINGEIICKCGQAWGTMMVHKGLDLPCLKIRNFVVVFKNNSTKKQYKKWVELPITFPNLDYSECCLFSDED

The assay concerns the target GST-RNF144B (UniProt Q7Z419). The assay is described as follows: pull-down; GST or GST-RNF144B (12 μg) and MDA5-Flag proteins incubated with glutathione agarose overnight at 4 °C, washed three times with PBS, immunoblot; both purified.

These are yes or no findings as the source states them, for the method shown. Binding can be weak; no strength is given.

Regarding “Flag-tagged MDA5 (from UniProt Q9BYX4 1-1025)”, the binding result is recorded as “binds”.
